Source: paper PMC6274753

Molecular target: T1, FLAG-TBC1D21 (UniProt Q8IYX1)
T1 sequence: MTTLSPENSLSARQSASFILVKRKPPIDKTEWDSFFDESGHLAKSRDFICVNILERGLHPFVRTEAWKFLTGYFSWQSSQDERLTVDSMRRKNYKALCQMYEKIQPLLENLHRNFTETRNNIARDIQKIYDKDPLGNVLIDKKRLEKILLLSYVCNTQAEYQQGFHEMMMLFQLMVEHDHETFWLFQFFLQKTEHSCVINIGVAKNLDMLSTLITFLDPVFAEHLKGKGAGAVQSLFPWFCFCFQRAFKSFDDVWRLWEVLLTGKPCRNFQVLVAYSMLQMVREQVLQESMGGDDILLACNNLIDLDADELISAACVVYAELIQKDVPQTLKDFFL
Assay: co-IP; lysate (4 mg in 1 mL) of NT2D1 cells co-transfected with pFLAG-TBC1D21 and pEGFP-Rap1; precleared with protein A/G beads; anti-FLAG antibody or control IgG overnight at 4 °C; washed twice with PBS; immunoblot with anti-FLAG and anti-EGFP

- binding: binds
Substance: Rap1-GFP

Results are given in words; binding and its absence hold for the method and conditions named. Binding seen in cells or lysates may run through a third protein. A result given as binding can be weak or reduced; the word gives no strength. Sequences can lack the tags named with a protein.
